The values below come from article PMC8786996.

Sequences of proteins named here, by UniProt entry; tags and fusion partners are left off.
UniProt Q84ZL0: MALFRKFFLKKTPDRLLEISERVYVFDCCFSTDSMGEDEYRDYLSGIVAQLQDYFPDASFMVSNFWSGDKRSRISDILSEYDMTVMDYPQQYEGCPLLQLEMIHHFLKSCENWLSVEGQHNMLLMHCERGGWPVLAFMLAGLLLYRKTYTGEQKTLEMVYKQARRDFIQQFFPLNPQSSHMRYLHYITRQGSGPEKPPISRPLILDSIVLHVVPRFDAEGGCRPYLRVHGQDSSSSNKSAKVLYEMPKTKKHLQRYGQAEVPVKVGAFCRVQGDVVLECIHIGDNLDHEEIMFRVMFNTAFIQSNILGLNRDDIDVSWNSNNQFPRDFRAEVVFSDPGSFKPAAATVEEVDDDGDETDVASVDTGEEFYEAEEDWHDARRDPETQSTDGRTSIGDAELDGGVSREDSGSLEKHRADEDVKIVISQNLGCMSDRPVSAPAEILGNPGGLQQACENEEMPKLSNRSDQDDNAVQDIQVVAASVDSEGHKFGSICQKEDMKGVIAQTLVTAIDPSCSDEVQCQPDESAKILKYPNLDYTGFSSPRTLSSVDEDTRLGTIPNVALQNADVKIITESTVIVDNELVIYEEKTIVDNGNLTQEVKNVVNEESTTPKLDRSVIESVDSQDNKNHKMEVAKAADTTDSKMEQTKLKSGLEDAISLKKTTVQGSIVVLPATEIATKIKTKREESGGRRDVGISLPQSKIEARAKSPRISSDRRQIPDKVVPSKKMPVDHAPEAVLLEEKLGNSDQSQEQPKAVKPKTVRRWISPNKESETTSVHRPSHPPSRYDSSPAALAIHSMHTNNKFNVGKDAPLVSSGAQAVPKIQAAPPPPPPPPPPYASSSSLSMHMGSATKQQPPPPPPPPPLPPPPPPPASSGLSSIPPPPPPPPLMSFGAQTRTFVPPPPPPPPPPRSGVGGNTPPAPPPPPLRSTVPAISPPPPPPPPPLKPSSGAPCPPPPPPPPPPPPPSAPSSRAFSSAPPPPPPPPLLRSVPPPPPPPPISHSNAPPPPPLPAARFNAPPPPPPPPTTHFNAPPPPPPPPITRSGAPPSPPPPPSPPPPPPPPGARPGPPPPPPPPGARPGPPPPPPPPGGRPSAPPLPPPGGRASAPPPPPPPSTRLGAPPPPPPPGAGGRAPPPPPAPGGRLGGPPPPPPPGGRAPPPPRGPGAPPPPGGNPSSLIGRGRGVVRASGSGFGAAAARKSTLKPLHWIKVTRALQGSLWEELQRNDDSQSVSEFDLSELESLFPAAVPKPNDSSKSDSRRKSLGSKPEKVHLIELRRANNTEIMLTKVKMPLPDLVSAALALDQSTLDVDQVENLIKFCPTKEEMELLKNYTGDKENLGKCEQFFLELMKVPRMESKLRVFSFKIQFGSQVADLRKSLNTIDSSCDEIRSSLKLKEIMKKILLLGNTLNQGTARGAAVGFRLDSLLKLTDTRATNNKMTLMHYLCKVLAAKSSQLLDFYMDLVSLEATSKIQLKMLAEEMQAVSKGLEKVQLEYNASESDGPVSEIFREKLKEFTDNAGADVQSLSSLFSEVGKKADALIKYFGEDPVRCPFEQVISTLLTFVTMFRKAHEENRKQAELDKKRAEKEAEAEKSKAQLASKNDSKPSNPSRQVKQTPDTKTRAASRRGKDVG

No constants are given. Whether binding was seen depends on the method and setting. Binding seen in cells or lysates may run through a third protein. Some entries that bind do so weakly or less than the wild type. Sequences can lack the tags named with a protein.

The target in assay [1] is full-length RIP5 fused to a half of YFP, in tobacco leaves (rice) (UniProt Q10L91). The experiment in a line: split reporter; BiFC with nYFP and cYFP fusions co-transformed into Nicotiana benthamiana leaves by Agrobacterium; confocal microscopy after 24-36 h in the dark.
Assay [2] addresses full-length RMD fused to cYFP (RMD-cYFP), in tobacco leaves (rice) (UniProt Q84ZL0). Described as above.

B1: full-length RIP5 fused to a half of YFP, in tobacco leaves (protein, UniProt Q10L91 1-301)
chain: MASVTYIDDSGSEVIDPPKTEVLDVTELAGDPVPHSPKPNVVVSSSVRELLECPVCLSAMYPPIHQCSNGHTLCSGCKPRVHNRCPTCRHELGNIRCLALEKVAASLELPCKYQNFGCVGIYPYYCKLKHESQCQYRPYSCPYAGSECTVAGDIPYLVNHLKDDHKVDMHNGCTFNHRYVKSNPHEVENATWMLTVFSCFGQYFCLHFEAFQLGMAPVYIAFLRFMGDDLEAKNYSYSLEVGGTGRKMIWQGVPRSIRDSHRKVRDSYDGLIIQRNMALFFSGGERKELKLRVTGRIWKEQ
On to B1, for which the binding entry in assay [1] and in assay [2] was “binds” each time.
